The list shows only some results of the screen, not a fair sample: it gathers tests that were run many times, whatever their T/C, doses with no T/C, and many T/C values between a quarter and a half above the control. Other doses and runs of a compound stand elsewhere. T/C: endpoint of the treated group in % of that of the vehicle group. Some entries give survivors of the animals treated and no T/C: the source files T/C as zero there, which appears to mark a toxic dose or a test without result, not a measured value. Some doses without a T/C left all or most animals alive at the check, yet need not have been tolerated: the source hardly ever lists a survival T/C far under the control, and the zero likely stands for such cases as well. Survivors were counted at the toxicity check, usually on the fifth day, unless a day is given; later deaths do not show. Schedule codes are those of the source, taken here to give the interval after Q, in days (D) or hours (H), and the number of doses after X. Some doses were run more than once; their values stand side by side, smallest first. Where survival is the endpoint, the PubChem record calls one and a half times the control and up active, and a quarter to a half above the control has no call in these data; cut-offs in other NCI protocols can differ. Some T/C values carry the count of animals alive at the toxicity check (mostly the fifth day); where none is given, no animal had died by that day.
Tested on: P388 leukemia ip, CD2F1 mice, survival T/C
Assay: NCI In Vivo Anticancer Drug Screen. Data for tumor model P388 Leukemia (intraperitoneal) in CD2F1 (CDF1) mice
Details: T/C endpoint: median survival time, higher T/C = longer survival
[1] = dose: 200.0 mg/kg/injection, schedule: Q01DX005 (ip), vehicle: Klucel (hydroxypropylcellulose) (HPC)
[2] = dose: 200.0 mg/kg/injection, schedule: Q01DX009 (ip), vehicle: saline with Tween-80
[3] = dose: 400.0 mg/kg/injection, schedule: Q01DX009 (ip), vehicle: saline with Tween-80
[4] = dose: 60.0 mg/kg/injection, schedule: Q01DX005 (ip), vehicle: saline
[5] = dose: 120.0 mg/kg/injection, schedule: Q01DX005 (ip), vehicle: saline
[6] = dose: 240.0 mg/kg/injection, schedule: Q01DX005 (ip), vehicle: saline

## CC[N+](CC)(CC)CCCNC1=CC(=O)C(NCCC[N+](CC)(CC)CC)=CC1=O
dose: 1.56 mg/kg/injection, schedule: Q04DX003 (ip), vehicle: saline
  survivor count: 1 of 6
dose: 3.12 mg/kg/injection, schedule: Q04DX003 (ip), vehicle: saline
  survivor count: 1 of 6
dose: 6.25 mg/kg/injection, schedule: Q04DX003 (ip), vehicle: saline
  survivor count: 0 of 6
dose: 12.5 mg/kg/injection, schedule: Q04DX003 (ip), vehicle: saline
  survivor count: 0 of 6
dose: 25.0 mg/kg/injection, schedule: Q04DX003 (ip), vehicle: saline
  survivor count: 0 of 6

## CN(C)[C@@H]1C(=O)C(C(N)=O)=C(O)[C@@]2(O)C(=O)C3=C(O)c4c(O)cccc4C[C@H]3C[C@@H]12
dose: 30.0 mg/kg/injection, schedule: Q01DX010 (ip), vehicle: saline
  T/C: 125 % of control [5 of 6 alive]
dose: 60.0 mg/kg/injection, schedule: Q01DX010 (ip), vehicle: saline
  survivor count: 4 of 6

## CNC(=S)N/N=C/Cn1cc([N+](=O)[O-])c(=O)[nH]c1=O
[1]
  survivor count: 2 of 6

## CSC(=C(C#N)C#N)N1CC1
dose: 100.0 mg/kg/injection, schedule: Q01DX001 (ip), vehicle: DMSO
  survivor count: 1 of 6
dose: 200.0 mg/kg/injection, schedule: Q01DX001 (ip), vehicle: DMSO
  survivor count: 0 of 6
dose: 400.0 mg/kg/injection, schedule: Q01DX001 (ip), vehicle: DMSO
  survivor count: 0 of 6

## CC(C)c1ccc(C2NC(C(=O)O)CS2)cc1 (centres undefined)
dose: 200.0 mg/kg/injection, schedule: Q01DX009 (ip), vehicle: suspension in saline
  survivor count: 6 of 6

## CCOC(=O)C1=S=C(SC)N(C)C1=O
[2]
  survivor count: 3 of 6
[3]
  survivor count: 0 of 6

## CCN(CC)CCSc1c2ccccc2nc2ccccc12
[4]
  survivor count: 0 of 6
[5]
  survivor count: 0 of 6
[6]
  survivor count: 0 of 6

## C[n+]1ccc(-c2cc[n+](C)cc2)cc1
dose: 6.25 mg/kg/injection, schedule: Q01DX009 (ip), vehicle: saline
  survivor count: 5 of 6 and 6 of 6
dose: 12.5 mg/kg/injection, schedule: Q01DX009 (ip), vehicle: saline
  survivor count: 4 of 6
dose: 25.0 mg/kg/injection, schedule: Q01DX009 (ip), vehicle: saline
  survivor count: 1 of 6 and 3 of 6
dose: 50.0 mg/kg/injection, schedule: Q01DX009 (ip), vehicle: saline
  survivor count: 0 of 6 and 6 of 6
dose: 100.0 mg/kg/injection, schedule: Q01DX009 (ip), vehicle: saline
  survivor count: 0 of 6 and 6 of 6
dose: 200.0 mg/kg/injection, schedule: Q01DX009 (ip), vehicle: saline
  survivor count: 0 of 6
dose: 400.0 mg/kg/injection, schedule: Q01DX009 (ip), vehicle: saline
  survivor count: 0 of 6

## CCC(C(=O)N(C)C)n1nc(Br)c(Br)c1C (centres undefined)
dose: 400.0 mg/kg/injection, schedule: Q04DX003 (ip), vehicle: Klucel (hydroxypropylcellulose) (HPC)
  survivor count: 6 of 6

## Cc1ccc(C)c2c1C(=O)c1c(C)ccc(C)c1C2=O
dose: 6.25 mg/kg/injection, schedule: Q01DX005 (ip), vehicle: Klucel (hydroxypropylcellulose) (HPC)
  survivor count: 5 of 5
dose: 12.5 mg/kg/injection, schedule: Q01DX005 (ip), vehicle: Klucel (hydroxypropylcellulose) (HPC)
  survivor count: 5 of 5
dose: 25.0 mg/kg/injection, schedule: Q01DX005 (ip), vehicle: Klucel (hydroxypropylcellulose) (HPC)
  survivor count: 5 of 5
dose: 100.0 mg/kg/injection, schedule: Q01DX005 (ip), vehicle: Klucel (hydroxypropylcellulose) (HPC)
  survivor count: 5 of 5

## O=C(NC1CCC(CC2CCC(NC(=O)C34CC5CC(CC(C5)C3)C4)CC2)CC1)C12CC3CC(CC(C3)C1)C2 (centres undefined)
dose: 3.12 mg/kg/injection, schedule: Q01DX005 (ip), vehicle: saline with Tween-80
  survivor count: 6 of 6
dose: 6.25 mg/kg/injection, schedule: Q01DX005 (ip), vehicle: saline with Tween-80
  survivor count: 6 of 6
dose: 12.5 mg/kg/injection, schedule: Q01DX005 (ip), vehicle: saline with Tween-80
  survivor count: 6 of 6
dose: 25.0 mg/kg/injection, schedule: Q01DX005 (ip), vehicle: saline with Tween-80
  survivor count: 6 of 6
dose: 50.0 mg/kg/injection, schedule: Q01DX005 (ip), vehicle: saline with Tween-80
  survivor count: 6 of 6
dose: 100.0 mg/kg/injection, schedule: Q01DX005 (ip), vehicle: saline with Tween-80
  survivor count: 6 of 6

## Nc1nc(Cl)c2[nH]cnc2n1
[2]
  survivor count: 2 of 6
[3]
  survivor count: 0 of 6

## COc1ccc(NCCc2ccc(-n3ncc(C(=O)NN)c3N)nn2)cc1OC
dose: 300.0 mg/kg/injection, schedule: Q01DX005 (ip), vehicle: other
  survivor count: 1 of 5

## CN(C)CCOC(=O)Nc1ccc(Cc2ccc(NC(=O)OCCN(C)C)cc2)cc1
dose: 120.0 mg/kg/injection, schedule: Q01DX005 (ip), vehicle: saline with Tween-80
  survivor count: 3 of 5
dose: 240.0 mg/kg/injection, schedule: Q01DX005 (ip), vehicle: saline with Tween-80
  survivor count: 0 of 5

## CCCCNC1Cc2ccccc2CC1O (centres undefined)
dose: 50.0 mg/kg/injection, schedule: Q01DX005 (ip), vehicle: saline
  survivor count: 0 of 6
dose: 100.0 mg/kg/injection, schedule: Q01DX005 (ip), vehicle: saline
  survivor count: 0 of 6
dose: 200.0 mg/kg/injection, schedule: Q01DX005 (ip), vehicle: saline
  survivor count: 0 of 6

## CCOC(=O)/C(=C(/C)N=Cc1ccccc1[N+](=O)[O-])C(NN=O)c1ccccc1[N+](=O)[O-] (centres undefined)
dose: 50.0 mg/kg/injection, schedule: Q01DX005 (ip), vehicle: Klucel (hydroxypropylcellulose) (HPC)
  survivor count: 6 of 6
[1]
  survivor count: 6 of 6

## CSC(=N/O)/C(=N\O)SC
dose: 100.0 mg/kg/injection, schedule: Q01DX009 (ip), vehicle: Klucel (hydroxypropylcellulose) (HPC)
  survivor count: 5 of 6

## Cc1cccc2c1C(=O)N(CC[P+](c1ccccc1)(c1ccccc1)c1ccccc1)C2=O
dose: 1.56 mg/kg/injection, schedule: Q01DX009 (ip), vehicle: water
  T/C: 131 % of control
dose: 3.13 mg/kg/injection, schedule: Q01DX009 (ip), vehicle: water
  T/C: 140 % of control
dose: 4.5 mg/kg/injection, schedule: Q01DX009 (ip), vehicle: water
  T/C: 129 % of control
dose: 6.25 mg/kg/injection, schedule: Q01DX009 (ip), vehicle: water
  T/C: 137 % of control
dose: 6.75 mg/kg/injection, schedule: Q01DX009 (ip), vehicle: water
  T/C: 133 % of control
dose: 12.5 mg/kg/injection, schedule: Q01DX009 (ip), vehicle: water
  survivor count: 6 of 6
dose: 25.0 mg/kg/injection, schedule: Q01DX009 (ip), vehicle: water
  survivor count: 1 of 6

## Cn1c(-c2ccc(/C=N/N=C(\N)N/N=C/c3ccc(-c4c[n+]5ccsc5n4C)cc3)cc2)c[n+]2ccsc12
dose: 0.5 mg/kg/injection, schedule: Q01DX005 (ip), vehicle: saline
  survivor count: 0 of 6
dose: 1.0 mg/kg/injection, schedule: Q01DX005 (ip), vehicle: saline
  survivor count: 0 of 6
dose: 2.0 mg/kg/injection, schedule: Q01DX005 (ip), vehicle: saline
  survivor count: 0 of 6
dose: 4.0 mg/kg/injection, schedule: Q01DX005 (ip), vehicle: saline
  survivor count: 0 of 6
dose: 7.5 mg/kg/injection, schedule: Q01DX005 (ip), vehicle: saline
  survivor count: 0 of 6
dose: 15.0 mg/kg/injection, schedule: Q01DX005 (ip), vehicle: saline
  survivor count: 0 of 6
dose: 30.0 mg/kg/injection, schedule: Q01DX005 (ip), vehicle: saline
  survivor count: 0 of 6
[4]
  survivor count: 0 of 6
[5]
  survivor count: 0 of 6
[6]
  survivor count: 0 of 6

## CC(C)NC(=S)NCc1ccc(Cl)c(Cl)c1
dose: 200.0 mg/kg/injection, schedule: Q01DX009 (ip), vehicle: other
  survivor count: 0 of 6
